The values below come from paper PMC7705377.

Amino acid sequences for entries named in this document (tags omitted). Residues count along the entry.
UniProt Q99MB1, residues 26-905: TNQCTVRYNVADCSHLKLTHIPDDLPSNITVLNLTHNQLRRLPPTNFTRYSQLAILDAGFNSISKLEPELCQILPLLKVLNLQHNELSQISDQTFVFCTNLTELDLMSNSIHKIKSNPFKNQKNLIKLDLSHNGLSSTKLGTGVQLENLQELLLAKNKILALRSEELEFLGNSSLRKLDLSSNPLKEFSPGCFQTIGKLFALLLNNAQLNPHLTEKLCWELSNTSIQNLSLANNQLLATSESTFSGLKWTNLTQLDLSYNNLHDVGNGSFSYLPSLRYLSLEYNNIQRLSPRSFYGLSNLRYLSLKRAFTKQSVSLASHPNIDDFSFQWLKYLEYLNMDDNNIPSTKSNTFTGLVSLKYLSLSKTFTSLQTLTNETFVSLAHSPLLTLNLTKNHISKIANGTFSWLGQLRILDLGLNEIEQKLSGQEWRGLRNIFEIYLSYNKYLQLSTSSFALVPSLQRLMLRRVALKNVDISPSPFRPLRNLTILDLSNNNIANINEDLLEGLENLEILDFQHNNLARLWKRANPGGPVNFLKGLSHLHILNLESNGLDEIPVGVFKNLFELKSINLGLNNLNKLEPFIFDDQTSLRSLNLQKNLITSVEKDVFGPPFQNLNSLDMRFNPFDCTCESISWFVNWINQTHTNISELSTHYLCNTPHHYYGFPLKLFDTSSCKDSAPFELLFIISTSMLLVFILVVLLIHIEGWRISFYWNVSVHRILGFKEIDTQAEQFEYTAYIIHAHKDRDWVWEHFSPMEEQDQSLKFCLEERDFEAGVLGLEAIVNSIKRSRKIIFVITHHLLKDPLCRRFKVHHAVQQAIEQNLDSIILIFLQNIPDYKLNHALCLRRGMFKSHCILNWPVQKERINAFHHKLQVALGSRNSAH

These are yes or no findings as the source states them, for the method shown. Binding seen in cells or lysates may run through a third protein. Some entries that bind do so weakly or less than the wild type.

The target in assay [1] is T1, lysosome-associated membrane protein 1 (mouse (endogenous in C8-D1A)) (UniProt P11438).
T1 sequence: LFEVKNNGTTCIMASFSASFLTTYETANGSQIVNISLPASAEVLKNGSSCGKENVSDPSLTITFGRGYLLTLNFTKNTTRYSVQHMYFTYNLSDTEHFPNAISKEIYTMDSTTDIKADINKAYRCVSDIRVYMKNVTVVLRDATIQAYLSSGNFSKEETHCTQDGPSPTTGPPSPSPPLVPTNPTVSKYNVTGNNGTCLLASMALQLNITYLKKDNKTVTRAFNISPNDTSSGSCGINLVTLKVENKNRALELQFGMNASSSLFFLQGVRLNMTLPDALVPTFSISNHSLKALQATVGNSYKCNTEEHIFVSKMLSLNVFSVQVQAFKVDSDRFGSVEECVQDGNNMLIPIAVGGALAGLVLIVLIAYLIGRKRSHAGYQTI
The assay is described as follows: proximity ligation; Duolink in situ PLA (indirect, DNA-labelled secondary antibodies; signal when they are no more than 40 nm apart) in fixed C8-D1A astrocytes, untreated or stimulated with poly(I:C) for 1 h (EEA1) or 24 h (Rab7, LAMP1).

Assay [2] has as its target T2, early endosome antigen 1 (mouse (endogenous in C8-D1A)) (UniProt Q8BL66).
T2 sequence: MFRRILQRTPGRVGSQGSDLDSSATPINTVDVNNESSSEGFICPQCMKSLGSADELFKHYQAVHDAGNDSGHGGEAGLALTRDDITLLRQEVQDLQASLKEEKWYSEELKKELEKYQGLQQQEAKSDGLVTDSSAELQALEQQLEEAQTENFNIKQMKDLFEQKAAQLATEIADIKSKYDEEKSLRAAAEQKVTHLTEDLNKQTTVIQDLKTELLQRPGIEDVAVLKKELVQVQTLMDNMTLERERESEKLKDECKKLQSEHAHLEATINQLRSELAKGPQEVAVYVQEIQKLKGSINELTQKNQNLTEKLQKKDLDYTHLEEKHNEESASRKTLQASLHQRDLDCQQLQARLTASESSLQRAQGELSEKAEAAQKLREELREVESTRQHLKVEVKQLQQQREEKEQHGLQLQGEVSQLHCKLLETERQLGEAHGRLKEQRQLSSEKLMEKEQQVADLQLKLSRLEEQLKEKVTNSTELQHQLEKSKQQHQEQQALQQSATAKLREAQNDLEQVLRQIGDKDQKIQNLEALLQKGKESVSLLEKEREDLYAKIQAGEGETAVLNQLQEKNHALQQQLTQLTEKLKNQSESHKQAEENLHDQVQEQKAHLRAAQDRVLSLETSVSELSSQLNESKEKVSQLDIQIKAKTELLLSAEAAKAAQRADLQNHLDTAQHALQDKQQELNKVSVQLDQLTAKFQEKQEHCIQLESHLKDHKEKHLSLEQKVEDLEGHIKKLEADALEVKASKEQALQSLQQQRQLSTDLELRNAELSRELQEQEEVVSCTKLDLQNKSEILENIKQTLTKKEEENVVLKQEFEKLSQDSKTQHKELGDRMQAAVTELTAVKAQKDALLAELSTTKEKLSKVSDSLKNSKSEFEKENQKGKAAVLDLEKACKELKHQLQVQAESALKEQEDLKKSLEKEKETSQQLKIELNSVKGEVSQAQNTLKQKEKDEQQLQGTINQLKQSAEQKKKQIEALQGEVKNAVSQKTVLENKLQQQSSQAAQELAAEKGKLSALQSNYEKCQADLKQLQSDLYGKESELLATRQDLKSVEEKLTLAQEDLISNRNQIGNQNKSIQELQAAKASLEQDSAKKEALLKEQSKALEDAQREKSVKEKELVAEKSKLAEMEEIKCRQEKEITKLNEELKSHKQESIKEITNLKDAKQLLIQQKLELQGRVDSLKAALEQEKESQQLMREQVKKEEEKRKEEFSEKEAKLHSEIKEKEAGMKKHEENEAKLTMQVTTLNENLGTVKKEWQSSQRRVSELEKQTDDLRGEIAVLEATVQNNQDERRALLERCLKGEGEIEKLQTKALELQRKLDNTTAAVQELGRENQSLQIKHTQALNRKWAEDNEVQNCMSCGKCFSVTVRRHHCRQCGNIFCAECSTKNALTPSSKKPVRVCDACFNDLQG
The assay is described as above.

Consider “Toll-like receptor 3 (from UniProt Q99MB1 26-905)”, for which the binding result in assay [1] and in assay [2] was “binds” in each case.
